# Results as given in the supplement of paper PMC12819154, “High-throughput peptide-centric local stability assay extends protein–ligand identification to membrane proteins, tissues and bacteria” (Nature Structural & Molecular Biology, 2025).
# Protein sequences, listed by entry. Tags and fused reporters are not part of them. Lines headed by an entry give the natural chain unless they say otherwise; changes in a name come on top.
# UniProt Q9DBD5: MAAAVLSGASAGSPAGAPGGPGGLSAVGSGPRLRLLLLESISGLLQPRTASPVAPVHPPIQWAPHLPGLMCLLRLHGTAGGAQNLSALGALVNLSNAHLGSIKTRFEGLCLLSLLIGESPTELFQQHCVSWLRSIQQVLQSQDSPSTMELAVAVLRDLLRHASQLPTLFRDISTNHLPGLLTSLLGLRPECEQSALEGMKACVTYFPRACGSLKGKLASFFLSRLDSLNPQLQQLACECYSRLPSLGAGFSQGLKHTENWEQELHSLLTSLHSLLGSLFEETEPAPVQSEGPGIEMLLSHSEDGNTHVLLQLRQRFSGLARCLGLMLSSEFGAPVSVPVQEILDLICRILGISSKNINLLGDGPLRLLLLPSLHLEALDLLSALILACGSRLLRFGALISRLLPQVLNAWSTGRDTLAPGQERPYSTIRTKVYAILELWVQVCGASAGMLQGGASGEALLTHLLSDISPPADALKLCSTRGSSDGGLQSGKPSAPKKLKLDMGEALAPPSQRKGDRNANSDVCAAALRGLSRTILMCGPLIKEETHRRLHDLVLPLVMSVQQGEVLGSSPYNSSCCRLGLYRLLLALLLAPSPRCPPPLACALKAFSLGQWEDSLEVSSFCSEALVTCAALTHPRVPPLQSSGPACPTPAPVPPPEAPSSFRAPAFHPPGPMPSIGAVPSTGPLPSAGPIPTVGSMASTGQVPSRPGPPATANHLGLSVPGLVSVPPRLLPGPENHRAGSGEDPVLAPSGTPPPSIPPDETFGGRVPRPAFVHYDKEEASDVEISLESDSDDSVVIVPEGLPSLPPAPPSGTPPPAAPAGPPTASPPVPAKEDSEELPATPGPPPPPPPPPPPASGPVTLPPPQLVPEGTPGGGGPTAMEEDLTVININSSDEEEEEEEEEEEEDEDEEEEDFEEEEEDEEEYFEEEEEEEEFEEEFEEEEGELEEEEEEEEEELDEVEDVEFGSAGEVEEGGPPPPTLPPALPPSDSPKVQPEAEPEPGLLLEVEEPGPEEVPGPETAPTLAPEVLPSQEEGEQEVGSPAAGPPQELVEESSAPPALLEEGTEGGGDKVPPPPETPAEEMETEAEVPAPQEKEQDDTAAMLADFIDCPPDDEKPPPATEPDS
# UniProt Q9DB34: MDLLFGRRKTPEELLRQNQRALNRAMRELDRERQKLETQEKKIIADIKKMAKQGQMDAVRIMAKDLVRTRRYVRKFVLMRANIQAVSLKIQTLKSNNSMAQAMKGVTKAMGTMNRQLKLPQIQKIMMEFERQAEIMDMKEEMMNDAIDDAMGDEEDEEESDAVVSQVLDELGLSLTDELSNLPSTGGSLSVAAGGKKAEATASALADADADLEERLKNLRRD
# UniProt Q9ERS2, whole entry: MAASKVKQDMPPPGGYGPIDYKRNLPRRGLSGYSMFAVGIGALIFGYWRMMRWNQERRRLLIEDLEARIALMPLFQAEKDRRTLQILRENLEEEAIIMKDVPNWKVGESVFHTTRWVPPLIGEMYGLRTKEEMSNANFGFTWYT
# UniProt Q9DAS9: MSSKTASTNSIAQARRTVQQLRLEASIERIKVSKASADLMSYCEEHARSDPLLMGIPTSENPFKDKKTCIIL
# UniProt Q9DCB1: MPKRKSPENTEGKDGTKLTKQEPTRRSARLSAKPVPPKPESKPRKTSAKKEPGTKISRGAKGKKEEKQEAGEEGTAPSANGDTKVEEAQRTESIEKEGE
# UniProt Q9DB05: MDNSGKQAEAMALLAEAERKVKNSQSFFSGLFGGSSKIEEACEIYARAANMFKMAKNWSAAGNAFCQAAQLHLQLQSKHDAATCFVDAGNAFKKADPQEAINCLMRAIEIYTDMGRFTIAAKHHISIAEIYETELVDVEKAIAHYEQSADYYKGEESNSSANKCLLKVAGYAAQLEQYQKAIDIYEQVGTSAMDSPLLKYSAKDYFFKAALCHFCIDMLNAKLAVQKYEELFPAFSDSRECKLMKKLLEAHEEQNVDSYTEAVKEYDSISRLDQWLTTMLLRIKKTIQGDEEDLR
# UniProt Q9DBS8: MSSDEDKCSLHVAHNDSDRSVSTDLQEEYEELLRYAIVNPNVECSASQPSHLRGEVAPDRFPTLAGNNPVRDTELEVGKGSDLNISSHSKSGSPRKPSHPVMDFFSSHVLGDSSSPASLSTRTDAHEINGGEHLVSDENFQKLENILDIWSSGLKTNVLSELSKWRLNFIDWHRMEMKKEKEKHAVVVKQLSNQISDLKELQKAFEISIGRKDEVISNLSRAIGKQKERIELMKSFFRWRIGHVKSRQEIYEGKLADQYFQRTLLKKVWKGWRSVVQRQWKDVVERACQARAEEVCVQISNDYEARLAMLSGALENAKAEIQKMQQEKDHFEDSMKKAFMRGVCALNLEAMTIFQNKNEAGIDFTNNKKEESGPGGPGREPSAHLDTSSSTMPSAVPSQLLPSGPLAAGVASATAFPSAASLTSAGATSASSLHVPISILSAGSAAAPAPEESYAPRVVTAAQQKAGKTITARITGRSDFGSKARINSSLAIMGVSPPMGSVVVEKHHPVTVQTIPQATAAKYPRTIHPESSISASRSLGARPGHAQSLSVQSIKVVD
# UniProt Q9ERA6: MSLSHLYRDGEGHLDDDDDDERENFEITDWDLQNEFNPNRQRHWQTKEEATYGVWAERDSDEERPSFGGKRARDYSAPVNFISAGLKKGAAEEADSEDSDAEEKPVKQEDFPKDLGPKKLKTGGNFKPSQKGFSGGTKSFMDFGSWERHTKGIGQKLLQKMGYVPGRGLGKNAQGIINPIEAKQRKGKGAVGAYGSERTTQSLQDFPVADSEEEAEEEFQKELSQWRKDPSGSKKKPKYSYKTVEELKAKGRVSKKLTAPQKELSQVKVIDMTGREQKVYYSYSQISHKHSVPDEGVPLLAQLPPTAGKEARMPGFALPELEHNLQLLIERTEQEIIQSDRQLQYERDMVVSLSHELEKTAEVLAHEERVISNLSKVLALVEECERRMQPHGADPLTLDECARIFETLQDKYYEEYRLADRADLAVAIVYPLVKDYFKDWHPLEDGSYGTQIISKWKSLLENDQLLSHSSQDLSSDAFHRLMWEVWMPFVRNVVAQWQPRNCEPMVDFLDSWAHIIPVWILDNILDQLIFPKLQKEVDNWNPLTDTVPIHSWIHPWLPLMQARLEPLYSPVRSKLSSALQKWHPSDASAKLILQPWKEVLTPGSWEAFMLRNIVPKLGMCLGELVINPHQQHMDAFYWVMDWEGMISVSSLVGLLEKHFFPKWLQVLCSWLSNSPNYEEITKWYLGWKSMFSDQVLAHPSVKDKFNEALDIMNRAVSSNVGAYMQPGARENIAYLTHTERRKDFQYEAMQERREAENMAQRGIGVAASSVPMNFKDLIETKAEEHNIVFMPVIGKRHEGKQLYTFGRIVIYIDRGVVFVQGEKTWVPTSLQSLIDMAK
# UniProt Q9DCD5: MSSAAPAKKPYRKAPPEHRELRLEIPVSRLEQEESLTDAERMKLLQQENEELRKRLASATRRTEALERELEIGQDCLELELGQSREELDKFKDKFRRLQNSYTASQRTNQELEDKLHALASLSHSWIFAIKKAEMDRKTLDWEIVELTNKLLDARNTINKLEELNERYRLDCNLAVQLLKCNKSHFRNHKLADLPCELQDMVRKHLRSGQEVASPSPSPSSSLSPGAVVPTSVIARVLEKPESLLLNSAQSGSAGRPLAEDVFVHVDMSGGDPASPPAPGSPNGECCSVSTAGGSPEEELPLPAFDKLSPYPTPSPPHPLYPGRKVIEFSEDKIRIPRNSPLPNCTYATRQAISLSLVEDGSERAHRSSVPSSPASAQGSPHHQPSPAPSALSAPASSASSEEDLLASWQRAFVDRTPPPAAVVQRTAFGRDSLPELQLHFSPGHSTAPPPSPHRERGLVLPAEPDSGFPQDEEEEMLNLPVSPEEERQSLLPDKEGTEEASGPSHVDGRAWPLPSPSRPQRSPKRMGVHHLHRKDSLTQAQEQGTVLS
# UniProt Q9DB60: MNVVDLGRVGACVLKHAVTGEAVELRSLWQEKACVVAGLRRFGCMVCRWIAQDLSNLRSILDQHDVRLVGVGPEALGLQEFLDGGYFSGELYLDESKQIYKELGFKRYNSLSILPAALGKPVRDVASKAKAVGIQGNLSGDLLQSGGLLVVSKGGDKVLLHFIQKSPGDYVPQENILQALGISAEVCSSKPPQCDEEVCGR
# UniProt Q9DB90: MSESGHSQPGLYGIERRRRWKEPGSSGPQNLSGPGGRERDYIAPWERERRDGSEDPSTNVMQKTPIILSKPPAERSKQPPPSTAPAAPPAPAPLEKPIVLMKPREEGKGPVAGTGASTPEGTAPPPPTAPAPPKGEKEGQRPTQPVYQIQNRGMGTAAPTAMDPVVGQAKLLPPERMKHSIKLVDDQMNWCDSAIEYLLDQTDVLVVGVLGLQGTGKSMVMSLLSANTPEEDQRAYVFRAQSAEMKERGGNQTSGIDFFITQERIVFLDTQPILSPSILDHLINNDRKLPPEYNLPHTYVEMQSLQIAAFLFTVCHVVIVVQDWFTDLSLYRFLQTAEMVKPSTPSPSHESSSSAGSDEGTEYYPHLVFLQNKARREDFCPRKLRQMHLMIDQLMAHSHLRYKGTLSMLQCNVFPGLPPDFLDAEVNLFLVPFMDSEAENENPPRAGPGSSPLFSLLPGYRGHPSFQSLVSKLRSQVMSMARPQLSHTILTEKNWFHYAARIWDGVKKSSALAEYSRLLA
# UniProt Q9DBL7: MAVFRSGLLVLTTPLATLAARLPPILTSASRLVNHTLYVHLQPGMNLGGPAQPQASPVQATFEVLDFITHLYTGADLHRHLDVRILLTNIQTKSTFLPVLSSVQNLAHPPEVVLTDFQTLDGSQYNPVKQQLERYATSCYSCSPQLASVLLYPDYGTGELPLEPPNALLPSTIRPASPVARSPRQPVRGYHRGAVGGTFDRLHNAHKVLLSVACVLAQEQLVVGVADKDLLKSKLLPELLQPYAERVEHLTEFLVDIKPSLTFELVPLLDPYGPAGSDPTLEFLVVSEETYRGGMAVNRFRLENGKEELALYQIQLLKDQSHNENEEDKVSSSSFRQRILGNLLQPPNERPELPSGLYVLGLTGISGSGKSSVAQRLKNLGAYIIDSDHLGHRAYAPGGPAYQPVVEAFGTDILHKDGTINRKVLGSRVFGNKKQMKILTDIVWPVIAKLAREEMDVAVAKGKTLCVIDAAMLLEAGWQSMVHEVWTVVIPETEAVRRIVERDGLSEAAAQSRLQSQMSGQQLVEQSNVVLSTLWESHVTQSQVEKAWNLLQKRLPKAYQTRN
# UniProt Q9DB16: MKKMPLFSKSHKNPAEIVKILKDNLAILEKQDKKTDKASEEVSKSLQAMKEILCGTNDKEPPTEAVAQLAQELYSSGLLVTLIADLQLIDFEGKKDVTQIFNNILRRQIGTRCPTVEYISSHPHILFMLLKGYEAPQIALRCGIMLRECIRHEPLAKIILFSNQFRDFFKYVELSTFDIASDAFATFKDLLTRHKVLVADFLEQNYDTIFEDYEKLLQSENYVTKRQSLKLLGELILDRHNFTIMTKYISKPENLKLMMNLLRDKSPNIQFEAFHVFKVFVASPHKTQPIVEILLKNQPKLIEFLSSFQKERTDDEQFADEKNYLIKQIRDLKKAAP
# UniProt Q9DCC8, whole entry: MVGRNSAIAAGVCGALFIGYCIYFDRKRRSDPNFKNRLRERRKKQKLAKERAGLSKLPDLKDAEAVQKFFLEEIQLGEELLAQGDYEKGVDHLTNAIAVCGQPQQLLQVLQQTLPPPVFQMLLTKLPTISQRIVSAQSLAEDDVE
# UniProt Q9DBT9: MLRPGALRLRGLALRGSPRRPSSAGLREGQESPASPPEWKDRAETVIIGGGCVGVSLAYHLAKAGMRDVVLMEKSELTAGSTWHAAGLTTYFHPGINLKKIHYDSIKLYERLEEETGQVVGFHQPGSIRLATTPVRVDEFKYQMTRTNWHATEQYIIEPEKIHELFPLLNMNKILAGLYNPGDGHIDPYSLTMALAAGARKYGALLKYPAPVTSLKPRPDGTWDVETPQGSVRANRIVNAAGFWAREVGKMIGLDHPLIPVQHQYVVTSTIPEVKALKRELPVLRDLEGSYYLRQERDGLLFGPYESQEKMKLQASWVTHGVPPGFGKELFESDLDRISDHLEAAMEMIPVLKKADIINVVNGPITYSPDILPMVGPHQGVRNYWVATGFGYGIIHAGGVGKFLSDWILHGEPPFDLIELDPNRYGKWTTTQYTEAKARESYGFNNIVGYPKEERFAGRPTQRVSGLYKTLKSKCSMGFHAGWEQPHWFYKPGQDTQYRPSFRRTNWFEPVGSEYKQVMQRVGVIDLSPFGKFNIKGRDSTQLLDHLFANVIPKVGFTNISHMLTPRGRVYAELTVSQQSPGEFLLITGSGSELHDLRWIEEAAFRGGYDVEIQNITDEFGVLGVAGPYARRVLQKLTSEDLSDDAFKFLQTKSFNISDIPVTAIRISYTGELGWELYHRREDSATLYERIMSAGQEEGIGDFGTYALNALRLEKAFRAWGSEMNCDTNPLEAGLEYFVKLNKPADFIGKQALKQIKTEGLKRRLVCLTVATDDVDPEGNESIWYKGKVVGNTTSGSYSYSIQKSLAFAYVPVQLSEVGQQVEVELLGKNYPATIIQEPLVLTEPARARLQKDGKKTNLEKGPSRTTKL
# This is one part of the list. Small differences around the control level are noise.
# Compound: CN[C@@H]1C[C@H]2O[C@@](C)([C@@H]1OC)n1c3ccccc3c3c4c(c5c6ccccc6n2c5c31)C(=O)NC4 [staurosporine]
# Assay: log2 fold change of tryptic peptide abundance, ligand vs vehicle (limited proteolysis) (log2 ratio); higher = more trypsin-susceptible (destabilized)
# Settings: ligand concentration: 20 uM; sample: mouse liver crude lysate; replicate design: treated separately
row,Target,log2 fold change
1,"UniProt Q9DBD5 (peptide sequence: LLPGPENHR, peptide start residue: 729)",0.099
2,"UniProt Q9DB34 (peptide sequence: KTPEELLR, peptide start residue: 9)",0.164
3,"UniProt Q9DB07 (peptide sequence: YTPQLIDLDHK, peptide start residue: 85)",0.613
4,"UniProt Q9ERS2 (peptide sequence: IALMPLFQAEKDRR, peptide start residue: 69)",-0.454
5,"UniProt Q9DBL9 (peptide sequence: SCIDGNSGTSIQSLRPK, peptide start residue: 300)",0.0342
6,"UniProt Q9DAS9 (peptide sequence: RTVQQLR, peptide start residue: 16)",-0.899
7,"UniProt Q9DCG6 (peptide sequence: RGGELDISLRPDGR, peptide start residue: 258)",0.204
8,"UniProt Q9DCB1 (peptide sequence: TESIEKEGE, peptide start residue: 91)",-0.0303
9,"UniProt Q9DB00 (peptide sequence: AAANSETIAPHR, peptide start residue: 2043)",0.498
10,"UniProt Q9DCS3 (peptide sequence: NHSPDEFK, peptide start residue: 318)",-0.391
11,"UniProt Q9EP71 (peptide sequence: KAPPPPISPTQLSDVSSPR, peptide start residue: 274)",-0.211
12,"UniProt Q9DB05 (peptide sequence: IEEACEIYAR, peptide start residue: 38)",0.197
13,"UniProt Q9DB25 (peptide sequence: EALPSIWDSPTK, peptide start residue: 54)",-0.146
14,"UniProt Q9DBS8 (peptide sequence: HHPVTVQTIPQATAAK, peptide start residue: 507)",0.175
15,"UniProt Q9ERA6 (peptide sequence: DSDEERPSFGGKR, peptide start residue: 59)",0.336
16,"UniProt Q9DBR0 (peptide sequence: LAAEQFKK, peptide start residue: 507)",-0.131

row,Target,log2 fold change
1,"UniProt Q9DB96 (peptide sequence: EQYSDAPEEIRDAR, peptide start residue: 211)",0.335
2,"UniProt Q9DCD5 (peptide sequence: AWPLPSPSRPQR, peptide start residue: 511)",-0.404
3,"UniProt Q9DB60 (peptide sequence: HAVTGEAVELR, peptide start residue: 16)",0.112
4,"UniProt Q9DB90 (peptide sequence: WKEPGSSGPQNLSGPGGR, peptide start residue: 20)",-0.412
5,"UniProt Q9EPK7 (peptide sequence: LGWFDCQKDDYVFR, peptide start residue: 118)",0.42
6,"UniProt Q9DBR1 (peptide sequence: KYPLPPPSGR, peptide start residue: 938)",0.458
7,"UniProt Q9DBL7 (peptide sequence: GAVGGTFDR, peptide start residue: 193)",0.0965
8,"UniProt Q9DB16 (peptide sequence: TDDEQFADEKNYLIK, peptide start residue: 313)",0.143
9,"UniProt Q9ERG0 (peptide sequence: QWTSLSLR, peptide start residue: 10)",-0.206
10,"UniProt Q9DC22 (peptide sequence: LADEVITR, peptide start residue: 817)",-0.4
11,"UniProt Q9DCC8 (peptide sequence: AGLSKLPDLK, peptide start residue: 52)",0.0928
12,"UniProt Q9DCT2 (peptide sequence: DHTNAQFK, peptide start residue: 101)",0.853
13,"UniProt Q9EPW0 (peptide sequence: YAFNSLQLK, peptide start residue: 913)",0.496
14,"UniProt Q9DBT9 (peptide sequence: LQASWVTHGVPPGFGK, peptide start residue: 313)",0.44
15,"UniProt Q9DCH4 (peptide sequence: TCFSPNR, peptide start residue: 259)",0.156

# As a short view, part of the list above.
row,Target,log2 fold change
5,"UniProt Q9EPK7 (peptide sequence: LGWFDCQKDDYVFR, peptide start residue: 118)",0.42
6,"UniProt Q9DBR1 (peptide sequence: KYPLPPPSGR, peptide start residue: 938)",0.458
7,"UniProt Q9DBL7 (peptide sequence: GAVGGTFDR, peptide start residue: 193)",0.0965
8,"UniProt Q9DB16 (peptide sequence: TDDEQFADEKNYLIK, peptide start residue: 313)",0.143
9,"UniProt Q9ERG0 (peptide sequence: QWTSLSLR, peptide start residue: 10)",-0.206
10,"UniProt Q9DC22 (peptide sequence: LADEVITR, peptide start residue: 817)",-0.4
11,"UniProt Q9DCC8 (peptide sequence: AGLSKLPDLK, peptide start residue: 52)",0.0928
12,"UniProt Q9DCT2 (peptide sequence: DHTNAQFK, peptide start residue: 101)",0.853
